Data taken from paper PMC8915600, “Optimization of experimental conditions for skin-PAMPA measurements” (ADMET & DMPK, 2020).

Experiment: skin-PAMPA permeability assay (gradient-pH, UPLC-DAD)
Conditions: mole fraction, neutral form

## COc1ccc2cc([C@H](C)C(=O)O)ccc2c1 [Naproxen]
With stirring, 30 min incubation
  RM (membrane retention): 0.13(±0.03)
With stirring, 4 h incubation
  RM (membrane retention): 0.00
With stirring, 24 h incubation
  RM (membrane retention): 0.00
Without stirring, 30 min incubation
  RM (membrane retention): 0.09(±0.02)
Without stirring, 4 h incubation
  RM (membrane retention): 0.04(±0.02)
Without stirring, 24 h incubation
  RM (membrane retention): 0.00
